No constants are given. Whether binding was seen depends on the method and setting. Sequences can lack the tags named with a protein.
Biological target: T1, L. monocytogenes SpxA1 fused to the T25 domain (SpxA1-T25) (Listeria monocytogenes) (UniProt Q9RGX0)
T1 sequence: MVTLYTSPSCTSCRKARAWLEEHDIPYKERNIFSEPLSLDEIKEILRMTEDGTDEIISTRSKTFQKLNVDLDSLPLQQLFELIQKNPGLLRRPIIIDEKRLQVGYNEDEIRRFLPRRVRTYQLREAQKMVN
Test: two-hybrid; bacterial adenylate cyclase two-hybrid (BACTH) in E. coli BTH101 with one T18 and one T25 plasmid; overnight cultures in LB broth at 37°C; beta-galactosidase (ONPG) read at 28°C, Miller units

T18 domain of Bordetella pertussis adenylate cyclase alone (domain or fragment)
binding: no binding
